Experimental data reported in paper PMC10053807, “Natural Lipid Extracts as an Artificial Membrane for Drug Permeability Assay: In Vitro and In Silico Characterization” (Pharmaceutics, 2023).

Columns and labels:
[1] = PAMPA permeability, brain polar lipid extract (BPLE) membrane; conditions: n=3, * = not detected at acceptor side, value calculated from limit of detection
[2] = PAMPA permeability, liver polar lipid extract (LPLE) membrane; conditions: bovine, pH 7.4, Mean Pe, n=3, * = not detected at acceptor side, value calculated from limit of detection
[3] = PAMPA permeability, heart total lipid extract (HTLE) membrane; conditions: bovine, pH 7.4, Mean Pe, n=3, * = not detected at acceptor side, value calculated from limit of detection
[4] = PAMPA permeability, brain total lipid extract (BTLE) membrane; conditions: n=3, * = not detected at acceptor side, value calculated from limit of detection
[5] = PAMPA permeability, heart polar lipid extract (HPLE) membrane; conditions: bovine, pH 7.4
[6] = PAMPA permeability, liver total lipid extract (LTLE) membrane; conditions: bovine, pH 7.4

Mean Pe [1]	Papp at 4 h, 100 μM [2]	Papp at 4 h, 100 μM [3]	Mean Pe [4]	Papp at 4 h, 100 μM [5]	Papp at 4 h, 100 μM [6]	SMILES
< 0,37* 10-6 cm/s	–	–	–	–	–	NS(=O)(=O)c1cc(C(=O)O)c(NCc2ccco2)cc1Cl [furosemide]
< 0,16* 10-6 cm/s	1.14 ×10⁻⁶ cm/s	0.42 ×10⁻⁶ cm/s	< 0,17* 10-6 cm/s	1.1 ×10⁻⁶ cm/s	1.59 ×10⁻⁶ cm/s	Cc1cc(NS(=O)(=O)c2ccc(N)cc2)no1 [sulfamethoxazole]
